Laboratory results: PubChem BioAssay AID1259424 (University of Nebraska Medical Center, 2018)
The whole screen tested about 14,000 reagents; shown is a random part of them. 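Higher correlation or smaller distance means closer resemblance to KSR1 loss; control wells, including KSR1 knockdowns, recur on many plates.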 Not all columns of the deposit are shown. Not given: the time to read-out.

Purpose: 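Rank knockdowns across the genome by resemblance to the KSR1 depletion profile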 (primary screen)
Cell system: human HCT116 colon cancer cells
Reagent: siRNA pool against human genes, 50 nM
Read-out: 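Six signature mRNAs by branched-DNA multiplex assay, scaled to two housekeeping genes and non-targeting median, log2; matched to mean KSR1 knockdown profile by Pearson correlation and euclidean distance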
Scale: mean correlation with KSR1 profile: higher = expression change more like KSR1 knockdown; mean distance from KSR1 profile: higher = expression change less like KSR1 knockdown

FHL2 [SID363992712]: mean correlation with KSR1 profile = 0.368; mean distance from KSR1 profile = 1.55
GAB2 [SID363998211]: mean correlation with KSR1 profile = -0.0916; mean distance from KSR1 profile = 1.68
COLEC11 [SID364002689]: mean correlation with KSR1 profile = -0.571; mean distance from KSR1 profile = 2.29
GMEB1 [SID363997373]: mean correlation with KSR1 profile = 0.607; mean distance from KSR1 profile = 1.29
MAGOH [SID363993550]: mean correlation with KSR1 profile = -0.407; mean distance from KSR1 profile = 1.57
ADGB [SID364005474]: mean correlation with KSR1 profile = -0.114; mean distance from KSR1 profile = 2.23
TYRP1 [SID363991873]: mean correlation with KSR1 profile = 0.119; mean distance from KSR1 profile = 1.85
CYTH4 [SID363998491]: mean correlation with KSR1 profile = 0.102; mean distance from KSR1 profile = 4.56
MAT2A [SID363996780]: mean correlation with KSR1 profile = -0.201; mean distance from KSR1 profile = 1.7
GPR35 [SID363996218]: mean correlation with KSR1 profile = -0.419; mean distance from KSR1 profile = 2.91
PSMD3 [SID363993966]: mean correlation with KSR1 profile = -0.597; mean distance from KSR1 profile = 3.13
MLN [SID363993596]: mean correlation with KSR1 profile = 0.517; mean distance from KSR1 profile = 1.5
CHML [SID363993036]: mean correlation with KSR1 profile = 0.0249; mean distance from KSR1 profile = 1.97
SPANXB1 [SID364003992]: mean correlation with KSR1 profile = 0.536; mean distance from KSR1 profile = 2.12
SPANXB1 [SID364004666]: mean correlation with KSR1 profile = 0.489; mean distance from KSR1 profile = 1.8
HYCC1 [SID364004072]: mean correlation with KSR1 profile = 0.788; mean distance from KSR1 profile = 0.878
TPX2 [SID363998060]: mean correlation with KSR1 profile = -0.187; mean distance from KSR1 profile = 3.28
DSTN [SID363997634]: mean correlation with KSR1 profile = -0.599; mean distance from KSR1 profile = 2.03
PLAT [SID363992215]: mean correlation with KSR1 profile = 0.47; mean distance from KSR1 profile = 1.04
PARP3 [SID363996387]: mean correlation with KSR1 profile = -0.365; mean distance from KSR1 profile = 3.45
NRF1 [SID363995950]: mean correlation with KSR1 profile = -0.399; mean distance from KSR1 profile = 3.09
RHBDF2 [SID364002903]: mean correlation with KSR1 profile = 0.626; mean distance from KSR1 profile = 1.26
PNMA8A [SID364000883]: mean correlation with KSR1 profile = -0.632; mean distance from KSR1 profile = 9.22
TRNT1 [SID363999785]: mean correlation with KSR1 profile = -0.125; mean distance from KSR1 profile = 3.06
TDG [SID363994340]: mean correlation with KSR1 profile = -0.286; mean distance from KSR1 profile = 2.35
HBA2 [SID363991840]: mean correlation with KSR1 profile = 0.303; mean distance from KSR1 profile = 2.35
CLIC3 [SID363995633]: mean correlation with KSR1 profile = -0.205; mean distance from KSR1 profile = 2.13
ASIC3 [SID363995726]: mean correlation with KSR1 profile = 0.378; mean distance from KSR1 profile = 1.03
